# Paper doi:10.1101/2025.11.19.689067 (bioRxiv, 2025)
# Sequences of proteins named here, by UniProt entry; tags and fusion partners are left off. Residues count along the entry.
# UniProt P48357, residues 22-1165: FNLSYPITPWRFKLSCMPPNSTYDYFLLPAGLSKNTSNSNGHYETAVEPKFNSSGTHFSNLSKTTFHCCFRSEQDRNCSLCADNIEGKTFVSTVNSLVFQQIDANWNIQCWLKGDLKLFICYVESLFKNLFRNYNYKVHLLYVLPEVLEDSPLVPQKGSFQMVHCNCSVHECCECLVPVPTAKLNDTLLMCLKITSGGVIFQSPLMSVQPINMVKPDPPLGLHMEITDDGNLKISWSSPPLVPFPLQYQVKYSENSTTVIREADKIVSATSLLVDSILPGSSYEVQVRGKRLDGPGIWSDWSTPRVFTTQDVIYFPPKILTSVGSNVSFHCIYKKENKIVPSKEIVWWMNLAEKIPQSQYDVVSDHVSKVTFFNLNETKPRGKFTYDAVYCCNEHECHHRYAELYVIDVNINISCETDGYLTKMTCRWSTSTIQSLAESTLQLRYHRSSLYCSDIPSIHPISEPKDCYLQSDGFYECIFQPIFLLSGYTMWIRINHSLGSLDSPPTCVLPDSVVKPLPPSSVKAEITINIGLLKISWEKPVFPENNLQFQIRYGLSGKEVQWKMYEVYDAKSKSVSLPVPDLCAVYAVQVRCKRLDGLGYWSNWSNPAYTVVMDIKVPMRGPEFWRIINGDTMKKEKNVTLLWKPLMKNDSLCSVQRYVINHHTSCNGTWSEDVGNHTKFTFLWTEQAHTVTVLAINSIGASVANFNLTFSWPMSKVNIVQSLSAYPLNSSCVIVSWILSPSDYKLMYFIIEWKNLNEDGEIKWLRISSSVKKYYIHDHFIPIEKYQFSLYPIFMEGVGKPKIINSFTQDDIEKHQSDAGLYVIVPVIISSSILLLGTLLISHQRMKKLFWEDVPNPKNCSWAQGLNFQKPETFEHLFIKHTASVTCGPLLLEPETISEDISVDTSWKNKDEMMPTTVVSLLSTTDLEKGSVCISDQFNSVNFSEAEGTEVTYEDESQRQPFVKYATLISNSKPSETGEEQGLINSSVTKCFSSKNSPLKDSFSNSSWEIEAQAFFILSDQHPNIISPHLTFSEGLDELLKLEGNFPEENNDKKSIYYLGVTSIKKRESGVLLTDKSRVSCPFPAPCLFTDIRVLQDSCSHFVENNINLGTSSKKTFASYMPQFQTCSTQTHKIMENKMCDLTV
# UniProt P13612, residues 34-1032: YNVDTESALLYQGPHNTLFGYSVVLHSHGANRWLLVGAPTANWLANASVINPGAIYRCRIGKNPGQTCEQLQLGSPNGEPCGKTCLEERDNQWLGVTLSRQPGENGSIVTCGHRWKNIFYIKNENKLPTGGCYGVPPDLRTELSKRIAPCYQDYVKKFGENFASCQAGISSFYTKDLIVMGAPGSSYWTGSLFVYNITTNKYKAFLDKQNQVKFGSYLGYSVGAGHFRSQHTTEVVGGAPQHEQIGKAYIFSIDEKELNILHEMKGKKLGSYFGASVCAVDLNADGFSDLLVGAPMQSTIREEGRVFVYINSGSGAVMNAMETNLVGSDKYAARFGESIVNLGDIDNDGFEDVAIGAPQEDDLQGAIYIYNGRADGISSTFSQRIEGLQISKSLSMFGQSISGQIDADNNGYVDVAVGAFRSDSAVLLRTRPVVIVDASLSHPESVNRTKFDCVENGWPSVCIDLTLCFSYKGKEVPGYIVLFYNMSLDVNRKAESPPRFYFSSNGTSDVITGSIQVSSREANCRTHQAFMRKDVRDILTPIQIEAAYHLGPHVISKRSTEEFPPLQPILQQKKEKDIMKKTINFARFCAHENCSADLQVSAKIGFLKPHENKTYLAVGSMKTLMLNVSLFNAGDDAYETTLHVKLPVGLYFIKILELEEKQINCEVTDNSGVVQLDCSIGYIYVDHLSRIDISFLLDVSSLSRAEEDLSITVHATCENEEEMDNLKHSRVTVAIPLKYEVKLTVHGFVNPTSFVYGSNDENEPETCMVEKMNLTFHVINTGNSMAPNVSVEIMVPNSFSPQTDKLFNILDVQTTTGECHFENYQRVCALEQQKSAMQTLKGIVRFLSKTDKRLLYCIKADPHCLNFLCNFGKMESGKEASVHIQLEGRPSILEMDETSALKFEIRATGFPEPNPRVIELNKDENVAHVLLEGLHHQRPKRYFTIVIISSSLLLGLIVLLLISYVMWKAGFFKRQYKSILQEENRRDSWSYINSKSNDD
# UniProt P52799, residues 28-333: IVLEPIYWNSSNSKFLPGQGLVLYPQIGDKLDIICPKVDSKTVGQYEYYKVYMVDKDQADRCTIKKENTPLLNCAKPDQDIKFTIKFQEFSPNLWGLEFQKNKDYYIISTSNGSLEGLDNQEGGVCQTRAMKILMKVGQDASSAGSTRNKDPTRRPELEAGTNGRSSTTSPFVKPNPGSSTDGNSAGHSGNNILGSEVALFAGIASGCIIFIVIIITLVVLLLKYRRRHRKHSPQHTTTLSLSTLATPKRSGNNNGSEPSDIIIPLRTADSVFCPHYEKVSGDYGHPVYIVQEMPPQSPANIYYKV
# Results are given in words; binding and its absence hold for the method and conditions named. In cells and extracts the contact can be indirect. A yes stands for co-enrichment or nearness to the bait. Other partners may have been found. No binding means not detected with the bait.
# B1: phosducin-like protein 3 (PDCL3), endogenous in HPMEC (protein, UniProt Q9H2J4 1-239)
# chain: MQDPNADTEWNDILRKKGILPPKESLKELEEEAEEEQRILQQSVVKTYEDMTLEELEDHEDEFNEEDERAIEMYRRRRLAEWKATKLKNKFGEVLEISGKDYVQEVTKAGEGLWVILHLYKQGIPLCALINQHLSGLARKFPDVKFIKAISTTCIPNYPDRNLPTIFVYLEGDIKAQFIGPLVFGGMNLTRDELEWKLSESGAIMTDLEENPKKPIEDVLLSSVRRSVLMKRDSDSEGD
# Target: DENV NS1-HA, wildtype (DENV2 NS1-His-HA) (dengue virus serotype 2) (UniProt P29990)
# Experiment: affinity purification with mass spectrometry; only the target purified
row,Molecule,binding
1,"leptin receptor (LEPR), endogenous in HPMEC (from UniProt P48357 22-1165)",binds
2,"integrin alpha 4 (ITGA4), endogenous in HPMEC (from UniProt P13612 34-1032)",binds
3,"EFNB2, endogenous in HPMEC (from UniProt P52799 28-333)",no binding
4,B1,binds
